Test results: article PMC8268430
Results are given in words; binding and its absence hold for the method and conditions named. Binding calls can cover weak binding; strength is not graded here. Sequences can lack the tags named with a protein. For some assays here: Binding seen in cells or lysates may run through a third protein.

Assays:
[1] = biological target: T1, NAC102 fused to the GAL4 DNA-binding domain (BD) (Arabidopsis thaliana) (UniProt Q8H115); assay: two-hybrid; NAC102 fused to GAL4 BD as bait (pGBKT7, Y187), PEP and NEP subunits fused to GAL4 AD as prey (pGADT7, AH109); mated, diploids plated on DDO and on QDO + 10 mM 3-AT, 28 °C; growth compared with the AD control
T1 sequence: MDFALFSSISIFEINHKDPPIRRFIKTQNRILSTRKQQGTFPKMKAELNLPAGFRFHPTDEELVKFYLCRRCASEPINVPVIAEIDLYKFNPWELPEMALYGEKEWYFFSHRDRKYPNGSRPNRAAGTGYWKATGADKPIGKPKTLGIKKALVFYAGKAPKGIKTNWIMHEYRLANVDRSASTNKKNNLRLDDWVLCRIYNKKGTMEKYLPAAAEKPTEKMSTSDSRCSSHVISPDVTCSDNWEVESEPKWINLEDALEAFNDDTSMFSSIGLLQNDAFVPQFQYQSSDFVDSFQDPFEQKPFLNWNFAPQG

[2] = biological target: T2, NAC102-eYFP (Arabidopsis thaliana) (UniProt Q8H115); assay: co-IP; total proteins of 8-day-old NAC102-eYFP transgenic seedlings, GFP-Trap beads 1 h; IP buffer 50 mM Tris-HCl pH 7.4, 150 mM NaCl, 1% Triton X-100, 1% sodium deoxycholate, 20 mM EDTA; wash buffer also with 0.1% SDS; blots with antibodies against rpoA, rpoB, rpoC1, rpoC2, rpoTp, rpoTmp; SSU-eYFP line as negative control; repeated twice
T2 sequence: T1 sequence

binding [1] | binding [2] | Substance
binds | – | rpoTmp fused to the GAL4 activation domain (AD) (Arabidopsis thaliana)
– | binds | rpoTmp (endogenous)
